# From patent US20180317489A1, “Substituted Oxadiazoles for Combating Phytopathogenic Fungi” (BASF SE, priority 2015, published 2018)
# Some results were stated once for a whole list of compounds, not compound by compound.
# Experiments:
# Type in all cases: in vivo
# Puccinia recondita [1] = experiment: Curative control of brown rust on wheat (glass house trial); conditions: 125 ppm, curative spray, wheat seedlings; untreated 90%
# Phakopsora pachyrhizi [2] = experiment: Curative control of soy bean rust on soy beans (glass house trial); conditions: curative spray, soy bean seedlings, untreated 90%
# Phakopsora pachyrhizi [3] = experiment: Protective control of soy bean rust on soy beans (glass house trial); conditions: protective spray, soy bean seedlings, untreated 100%
# Puccinia recondita [4] = experiment: Preventative control of brown rust on wheat (glass house trial); conditions: 125 ppm, preventative spray, wheat seedlings; untreated 90%
smiles,measurement,setting,value
CCCOCCNC(=O)c1ccc(-c2noc(C(F)(F)F)n2)cc1 [I.A-1],diseased leaf area,Puccinia recondita [1],at most 10%
same,diseased leaf area,Phakopsora pachyrhizi [2]; 125 ppm,at most 1%
same,diseased leaf area,Phakopsora pachyrhizi [3]; 125 ppm,at most 1%
same,diseased leaf area,Puccinia recondita [4],at most 4%
CC(C)COCCN(C)C(=O)c1ccc(-c2noc(C(F)(F)F)n2)cc1 [I.A-2],diseased leaf area,Puccinia recondita [1],at most 10%
same,diseased leaf area,Phakopsora pachyrhizi [2]; 125 ppm,at most 1%
same,diseased leaf area,Phakopsora pachyrhizi [3]; 125 ppm,at most 1%
same,diseased leaf area,Puccinia recondita [4],at most 4%
CCOC(=O)CN(C)C(=O)c1ccc(-c2noc(C(F)(F)F)n2)cc1 [I.A-3],diseased leaf area,Puccinia recondita [1],at most 10%
same,diseased leaf area,Phakopsora pachyrhizi [3]; 125 ppm,at most 1%
same,diseased leaf area,Puccinia recondita [4],at most 4%
CC(CO)NC(=O)c1ccc(-c2noc(C(F)(F)F)n2)cc1 (stereo not drawn) [I.A-4],diseased leaf area,Phakopsora pachyrhizi [2]; 32 ppm,at most 20%
same,diseased leaf area,Phakopsora pachyrhizi [3]; 32 ppm,at most 20%
COCCNC(=O)c1ccc(-c2noc(C(F)(F)F)n2)cc1 [I.A-12],diseased leaf area,Puccinia recondita [1],at most 10%
same,diseased leaf area,Phakopsora pachyrhizi [2]; 125 ppm,at most 1%
same,diseased leaf area,Phakopsora pachyrhizi [3]; 125 ppm,at most 1%
same,diseased leaf area,Puccinia recondita [4],at most 4%
O=C(NCCOC(F)(F)F)c1ccc(-c2noc(C(F)(F)F)n2)cc1 [I.A-15],diseased leaf area,Puccinia recondita [1],at most 10%
same,diseased leaf area,Phakopsora pachyrhizi [2]; 125 ppm,at most 1%
same,diseased leaf area,Phakopsora pachyrhizi [3]; 125 ppm,at most 1%
same,diseased leaf area,Puccinia recondita [4],at most 4%
"O=C(NCCOC1CCC1)c1ccc(-c2noc(C(F)(F)F)n2)cc1 [I.A-16, N-[2-(cyclobutoxy)ethyl]-4-[5-(trifluoromethyl)-1,2,4-oxadiazol-3-yl]benzamide]",diseased leaf area,Puccinia recondita [1],at most 10%
same,diseased leaf area,Phakopsora pachyrhizi [2]; 125 ppm,at most 1%
same,diseased leaf area,Phakopsora pachyrhizi [3]; 125 ppm,at most 1%
same,diseased leaf area,Puccinia recondita [4],at most 4%
COC(=O)C(C)(C)NC(=O)c1ccc(-c2noc(C(F)(F)F)n2)cc1 [I.A-17],diseased leaf area,Phakopsora pachyrhizi [2]; 32 ppm,at most 20%
same,diseased leaf area,Phakopsora pachyrhizi [3]; 32 ppm,at most 20%
COC(=O)C1(NC(=O)c2ccc(-c3noc(C(F)(F)F)n3)cc2)CC1 [I.A-18],diseased leaf area,Puccinia recondita [1],at most 10%
same,diseased leaf area,Phakopsora pachyrhizi [2]; 125 ppm,at most 1%
same,diseased leaf area,Phakopsora pachyrhizi [3]; 125 ppm,at most 1%
same,diseased leaf area,Puccinia recondita [4],at most 4%
CC(O)C(C)NC(=O)c1ccc(-c2noc(C(F)(F)F)n2)cc1 (stereo not drawn) [I.A-20],diseased leaf area,Phakopsora pachyrhizi [3]; 32 ppm,at most 20%
CCOC(=O)C1(NC(=O)c2ccc(-c3noc(C(F)(F)F)n3)cc2)CC1 [I.A-23],diseased leaf area,Phakopsora pachyrhizi [2]; 32 ppm,at most 20%
same,diseased leaf area,Phakopsora pachyrhizi [3]; 32 ppm,at most 20%
CCOC(=O)CNC(=O)c1ccc(-c2noc(C(F)(F)F)n2)cc1 [I.A-24],diseased leaf area,Phakopsora pachyrhizi [3]; 32 ppm,at most 20%
COC(=O)C(C)NC(=O)c1ccc(-c2noc(C(F)(F)F)n2)cc1 (stereo not drawn) [I.A-25],diseased leaf area,Phakopsora pachyrhizi [2]; 32 ppm,at most 20%
same,diseased leaf area,Phakopsora pachyrhizi [3]; 32 ppm,at most 20%
COC(=O)C1(NC(=O)c2ccc(-c3noc(C(F)(F)F)n3)cc2)CCCC1 [I.A-26],diseased leaf area,Phakopsora pachyrhizi [3]; 32 ppm,at most 20%
O=C(NCCOCC1CC1)c1ccc(-c2noc(C(F)(F)F)n2)cc1 [I.A-27],diseased leaf area,Phakopsora pachyrhizi [2]; 32 ppm,at most 20%
same,diseased leaf area,Phakopsora pachyrhizi [3]; 32 ppm,at most 20%
O=C(NCCOCC1CCC1)c1ccc(-c2noc(C(F)(F)F)n2)cc1 [I.A-28],diseased leaf area,Phakopsora pachyrhizi [3]; 32 ppm,at most 20%
C=CCOCCNC(=O)c1ccc(-c2noc(C(F)(F)F)n2)cc1 [I.A-29],diseased leaf area,Phakopsora pachyrhizi [2]; 32 ppm,at most 20%
same,diseased leaf area,Phakopsora pachyrhizi [3]; 32 ppm,at most 20%
CC(CNC(=O)c1ccc(-c2noc(C(F)(F)F)n2)cc1)Oc1ccc(Cl)cc1 (stereo not drawn) [I.A-30],diseased leaf area,Phakopsora pachyrhizi [3]; 32 ppm,at most 20%
Cc1cccc(C)c1OC(C)CNC(=O)c1ccc(-c2noc(C(F)(F)F)n2)cc1 (stereo not drawn) [I.A-31],diseased leaf area,Phakopsora pachyrhizi [3]; 32 ppm,at most 20%
CC(CNC(=O)c1ccc(-c2noc(C(F)(F)F)n2)cc1)OC1CCCCC1 (stereo not drawn) [I.A-32],diseased leaf area,Phakopsora pachyrhizi [2]; 32 ppm,at most 20%
same,diseased leaf area,Phakopsora pachyrhizi [3]; 32 ppm,at most 20%
O=C(NCCOc1ccc(OC(F)(F)F)cc1)c1ccc(-c2noc(C(F)(F)F)n2)cc1 [I.A-34],diseased leaf area,Phakopsora pachyrhizi [3]; 32 ppm,at most 20%
CC(=O)OCCNC(=O)c1ccc(-c2noc(C(F)(F)F)n2)cc1 [I.A-36],diseased leaf area,Phakopsora pachyrhizi [2]; 32 ppm,at most 20%
same,diseased leaf area,Phakopsora pachyrhizi [3]; 32 ppm,at most 20%
C#CCOCCNC(=O)c1ccc(-c2noc(C(F)(F)F)n2)cc1 [I.A-37],diseased leaf area,Phakopsora pachyrhizi [2]; 32 ppm,at most 20%
same,diseased leaf area,Phakopsora pachyrhizi [3]; 32 ppm,at most 20%
CNC(=O)CNC(=O)c1ccc(-c2noc(C(F)(F)F)n2)cc1 [I.B-2],diseased leaf area,Phakopsora pachyrhizi [3]; 32 ppm,at most 20%
O=CN(CCNC(=O)c1ccc(-c2noc(C(F)(F)F)n2)cc1)C1CC1 [I.B-15],diseased leaf area,Phakopsora pachyrhizi [3]; 32 ppm,at most 20%
CC(CN1CCCCC1)NC(=O)c1ccc(-c2noc(C(F)(F)F)n2)cc1 (stereo not drawn) [I.B-17],diseased leaf area,Phakopsora pachyrhizi [3]; 32 ppm,at most 20%
O=C(NCCN1CCCCC1)c1ccc(-c2noc(C(F)(F)F)n2)cc1 [I.B-18],diseased leaf area,Phakopsora pachyrhizi [3]; 32 ppm,at most 20%
CCC(CN1CCOCC1)NC(=O)c1ccc(-c2noc(C(F)(F)F)n2)cc1 (stereo not drawn) [I.B-19],diseased leaf area,Phakopsora pachyrhizi [3]; 32 ppm,at most 20%
CC(CN1CCOCC1)NC(=O)c1ccc(-c2noc(C(F)(F)F)n2)cc1 (stereo not drawn) [I.B-20],diseased leaf area,Phakopsora pachyrhizi [3]; 32 ppm,at most 20%
CN(CCNC(=O)c1ccc(-c2noc(C(F)(F)F)n2)cc1)c1ccccc1 [I.B-21],diseased leaf area,Phakopsora pachyrhizi [3]; 32 ppm,at most 20%
CN(C)CCNC(=O)c1ccc(-c2noc(C(F)(F)F)n2)cc1 [I.B-22],diseased leaf area,Phakopsora pachyrhizi [3]; 32 ppm,at most 20%
O=C(NCCN1CCCC1)c1ccc(-c2noc(C(F)(F)F)n2)cc1 [I.B-23],diseased leaf area,Phakopsora pachyrhizi [3]; 32 ppm,at most 20%
CC(CN1CCN(C)CC1)NC(=O)c1ccc(-c2noc(C(F)(F)F)n2)cc1 (stereo not drawn) [I.B-24],diseased leaf area,Phakopsora pachyrhizi [3]; 32 ppm,at most 20%
CC1CCN(CCNC(=O)c2ccc(-c3noc(C(F)(F)F)n3)cc2)CC1 [I.B-26],diseased leaf area,Phakopsora pachyrhizi [3]; 32 ppm,at most 20%
